# Experimental data: PubChem BioAssay AID504444 (National Center for Advancing Translational Sciences (NCATS), 2011)
# In all, about 360,000 compounds went through this assay and about 7,500 (2.1%) were called active. The inconclusive results got no clear call from the source; some entries with a clear call stand among them for comparison. Calls come from the whole dose curve; as a rule, active = well fitted inhibition curve with a large enough effect; inconclusive = small, poorly fitted or top-dose-only effect, or effect the other way; inactive = flat fitted curve, though single readings scatter. A potency beside an inconclusive call is a rough fit, not a confirmed value.
# Assay: Nrf2 qHTS screen for inhibitors; note: nearly all actives have a fitted effect of over 60% in size
# Conditions: A549 ARE-Fluc reporter, luciferase luminescence, 18-24 h; series mostly up to 46 µM
# Procedure, shortened: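 Concentration-response testing used A549 ARE_Fluc cells at 5000 cells/well. Following an 18-24 h compound incubation, viability was read by fluorescence (Ex 405/Em 525) and luciferase output by luminescence.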
# Potency is the fitted concentration of half-maximal effect.
row,Structure (SMILES),Potency
1,CCN(CC(=O)Nc1ccc(OC)cc1)CC(=O)Nc1ccc(Br)cc1F,"inconclusive: 29.1 µM [activator, single point]"
2,CCOC(=O)c1c(NC(=O)COc2ccc(Cl)cc2Cl)sc2c1CCCCC2,inactive
3,COc1ccccc1NC(=O)Cn1c(C)cc(=O)c2cccc(OC)c21,active: 11.6 µM
4,COc1ccc(/C(C)=N/NC(=S)NCc2ccco2)cc1,inactive
5,CN(C)c1ccc(CNC(=O)Cn2c(-c3cccs3)cc3cc(Cl)ccc32)cc1,inactive
6,CCCC(=O)N1c2ccccc2-c2nnc(SC)nc2OC1c1sccc1C (stereo not drawn),inactive
7,O=C(NCC1CC1)Nc1cccc(Cl)c1,"inconclusive: 20.6 µM [activator, single point]"
8,O=C(Nc1ccccc1-c1nnn(CC(=O)N2CCc3ccccc3C2)n1)C1CCC1,"inconclusive: 1.46 µM [activator, full curve, poor fit]"
9,COc1ccc(C(=O)N/N=C(\Cc2ncc[nH]2)c2ccccc2)cc1,"inconclusive: 23.1 µM [falling, single point]"
10,O=C(Nc1ccc2c(c1)OCCO2)C1CC1c1ccccc1 (stereo not drawn),"inconclusive: 3.26 µM [activator, full curve]"
11,Cc1ccc(OC(=O)c2c(C)nn(-c3ccccc3)c2C)cc1,"inconclusive: 29.1 µM [activator, single point]"
12,O=C(C1=C(c2ccccc2)C(=O)c2ccccc2C1=O)c1ccccc1,inactive
13,COc1ccc(S(=O)(=O)N2CCC(n3c(C)nc4cccnc43)CC2)cc1Cl,"inconclusive: 16.4 µM [activator, partial curve, poor fit]"
14,C=CCNC(=O)CN(c1ccc(OC)cc1OC)S(C)(=O)=O,inactive
15,COc1cc2c(cc1OC)C(C)N(C(=O)Cn1ncc3c1-c1cc(C)ccc1OC3)CC2 (stereo not drawn),"inconclusive: 29.1 µM [falling, single point]"
16,Cc1cc(N2CCN(C/C=C/c3ccccc3)CC2)n2ncnc2n1,"inconclusive: 18.4 µM [falling, single point]"
17,CCc1nnc(NS(=O)(=O)c2ccc(NC(=O)c3cccc4ccccc34)cc2)s1,"inconclusive: 18.4 µM [falling, partial curve]"
18,CCOc1ccc(-c2cc(C(=O)O)c3ccccc3n2)cc1,"inconclusive: 16.4 µM [falling, single point]"
19,O=C(Nc1cccc(Cl)c1)N1CCN(C2c3ccccc3-c3ccccc32)CC1,"inconclusive: 13 µM [activator, partial curve, poor fit]"
20,O=C(Nc1ccc(C(=O)Nc2ccccc2Cl)cc1)c1cccnc1,"inconclusive: 1.64 µM [falling, full curve]"
21,Cc1ccc(-c2nnc(SCC(=O)NCc3ccccc3)o2)cc1,"inconclusive: 1.64 µM [falling, full curve, poor fit]"
22,COc1ccc(C2CC(=O)C3=C(C2)Nc2ncnn2C3c2ccccc2C)c(OC)c1 (stereo not drawn),"inconclusive: 23.1 µM [falling, partial curve, poor fit]"
23,Nc1c(-c2nc(-c3ccccc3Cl)no2)nnn1-c1ccccc1C(F)(F)F,"inconclusive: 29.1 µM [activator, single point]"

# For reference, 12 of the compounds above.
row,Structure (SMILES),Potency
1,CCN(CC(=O)Nc1ccc(OC)cc1)CC(=O)Nc1ccc(Br)cc1F,"inconclusive: 29.1 µM [activator, single point]"
2,CCOC(=O)c1c(NC(=O)COc2ccc(Cl)cc2Cl)sc2c1CCCCC2,inactive
3,COc1ccccc1NC(=O)Cn1c(C)cc(=O)c2cccc(OC)c21,active: 11.6 µM
4,COc1ccc(/C(C)=N/NC(=S)NCc2ccco2)cc1,inactive
5,CN(C)c1ccc(CNC(=O)Cn2c(-c3cccs3)cc3cc(Cl)ccc32)cc1,inactive
6,CCCC(=O)N1c2ccccc2-c2nnc(SC)nc2OC1c1sccc1C (stereo not drawn),inactive
7,O=C(NCC1CC1)Nc1cccc(Cl)c1,"inconclusive: 20.6 µM [activator, single point]"
8,O=C(Nc1ccccc1-c1nnn(CC(=O)N2CCc3ccccc3C2)n1)C1CCC1,"inconclusive: 1.46 µM [activator, full curve, poor fit]"
9,COc1ccc(C(=O)N/N=C(\Cc2ncc[nH]2)c2ccccc2)cc1,"inconclusive: 23.1 µM [falling, single point]"
10,O=C(Nc1ccc2c(c1)OCCO2)C1CC1c1ccccc1 (stereo not drawn),"inconclusive: 3.26 µM [activator, full curve]"
11,Cc1ccc(OC(=O)c2c(C)nn(-c3ccccc3)c2C)cc1,"inconclusive: 29.1 µM [activator, single point]"
12,O=C(C1=C(c2ccccc2)C(=O)c2ccccc2C1=O)c1ccccc1,inactive

# Three compounds from above, sorted by molecular weight, falling:
row,Structure (SMILES),Potency
23,Nc1c(-c2nc(-c3ccccc3Cl)no2)nnn1-c1ccccc1C(F)(F)F,"inconclusive: 29.1 µM [activator, single point]"
12,O=C(C1=C(c2ccccc2)C(=O)c2ccccc2C1=O)c1ccccc1,inactive
18,CCOc1ccc(-c2cc(C(=O)O)c3ccccc3n2)cc1,"inconclusive: 16.4 µM [falling, single point]"

# Next part:

row,Structure (SMILES),Potency
1,Cc1ccc(NC(C)C(=O)N/N=C/c2ccc([N+](=O)[O-])s2)cc1 (stereo not drawn),"inconclusive: 25.9 µM [falling, single point]"
2,CC(=O)c1ccc2noc(-c3ccc(Cl)cc3)c2c1,"inconclusive: 29.1 µM [activator, single point]"
3,C=C(C)CSc1cc(C)nc2c(-c3ccccc3)c(C)nn12,"inconclusive: 29.1 µM [falling, single point]"
4,Cc1cc(C)cc(Oc2ccccc2/C=C\C(=O)O)c1,"inconclusive: 5.17 µM [falling, partial curve, poor fit]"
5,CCCn1cc(S(=O)(=O)c2ccc(OC)cc2)c(=O)c2cc(OCC)ccc21,"inconclusive: 20.6 µM [falling, partial curve]"
6,CCOc1ccccc1N1CCN(S(=O)(=O)c2cccs2)CC1,"inconclusive: 32.6 µM [falling, single point]"
7,O=C(O)C(c1ccccc1)C1(O)CCC1 (stereo not drawn),"inconclusive: 5.8 µM [activator, partial curve, poor fit]"
8,COc1ccc(CNC(=O)COC(=O)/C=C/c2ccco2)cc1,inactive
9,CC(=O)N1CCN(S(=O)(=O)c2ccc3c(c2)OCCO3)CC1,inactive
10,CCN(CC)S(=O)(=O)c1ccc(NC(=O)c2c(C)oc3ncnc(N4CCCCC4)c23)cc1,"inconclusive: 23.1 µM [falling, single point]"
11,CCCOc1ccc(Oc2ccc(S(=O)(=O)N3CCN(C)CC3)cn2)cc1,"inconclusive: 32.6 µM [falling, single point]"
12,COc1ccc(-c2n[nH]c3c2C(c2ccccn2)N(C)C3=O)cc1 (stereo not drawn),inactive
13,O=C1C=C(c2cccs2)C[C@H](c2ccccc2)[C@H]1n1nnc([N+](=O)[O-])n1,"inconclusive: 29.1 µM [activator, single point]"
14,O=C(Nc1ccc2c(c1)OCO2)c1ccncc1,"inconclusive: 23.1 µM [activator, partial curve]"
15,CCN(CC)c1ccc(N=Nc2nn(C)c(C)c2[N+](=O)[O-])cc1,"inconclusive: 1.46 µM [activator, full curve]"
16,O=C(c1cnn2c(-c3ccccc3)cc(-c3ccccc3)nc12)N1CCN(Cc2ccccc2)CC1,"inconclusive: 20.6 µM [falling, single point]"
17,Cc1ccc(C(=O)Nc2ccc(N3CCN(C(=O)c4cccs4)CC3)cc2)c(Cl)c1,active: 23.1 µM
18,CCCn1cnc2cc(NCc3ccc(Br)cc3)ccc21,"inconclusive: 8.2 µM [activator, partial curve]"
19,COc1cc(Nc2ccc(C(=O)O)cc2[N+](=O)[O-])cc(OC)c1,"inconclusive: 9.2 µM [falling, partial curve]"
20,NC(=O)c1ccccc1NC(=O)CCCc1ccccc1,inactive
21,Cc1nc(-c2ccccc2)sc1C(=O)O,"inconclusive: 13 µM [activator, partial curve]"
22,CCOc1ccc(CNS(=O)(=O)c2ccc3c(c2)CC(C)N3C(C)=O)cc1OC (stereo not drawn),"inconclusive: 14.6 µM [falling, single point]"
23,CCCn1nnnc1COc1ccc(C(N)=O)cc1,inactive

row,Structure (SMILES),Potency
1,Cc1noc(C)c1-c1ccc2ncnc(NCc3cccc(-c4ccccc4)c3)c2c1,active: 7.31 µM
2,O=C(COc1ccc(CO)cc1Cl)Nc1ccc(F)cc1,"inconclusive: 0.461 µM [activator, full curve, poor fit]"
3,CC(=O)c1cccc(N=Nc2c(-c3ccccc3)[nH]n(-c3ccccc3)c2=O)c1,"inconclusive: 20.6 µM [falling, single point]"
4,COc1ccc(N2CCN(C(=O)CSc3nc(-c4ccccc4)no3)CC2)cc1,"inconclusive: 6.51 µM [activator, partial curve, poor fit]"
5,CNC(=S)Nc1ccc(C23CC4CC(CC(C4)C2)C3)cc1,"inconclusive: 4.11 µM [activator, single point]"
6,O=C(O)c1ccc(-c2nc3ccccc3s2)o1,"inconclusive: 29.1 µM [activator, single point]"
7,CC1N(C)c2cc(NC(=O)c3ccco3)ccc2C1(C)C (stereo not drawn),"inconclusive: 32.6 µM [falling, single point]"
8,Cc1cccc2cc(CN(C(=O)c3cnccn3)C3CCCCC3)c(Cl)nc12,"inconclusive: 16.4 µM [falling, partial curve, poor fit]"
9,O=C(Nc1ccc(-c2csc(-c3ccccc3)n2)cc1)c1ccccc1Cl,"inconclusive: 1.64 µM [falling, partial curve]"
10,COc1ccc(Cn2c(C3CC3)nc3ccc(NC(=O)c4ccco4)cc3c2=O)cc1,"inconclusive: 4.61 µM [activator, partial curve, poor fit]"
11,COc1ccc(CNC(=O)c2cnn(-c3ccccc3)c2-n2cccc2)cc1OC,"inconclusive: 29.1 µM [falling, single point]"
12,CC(C)CCOc1ccc(C2CC(=O)N(C)C2=O)cc1 (stereo not drawn),"inconclusive: 6.51 µM [activator, partial curve, poor fit]"
13,Clc1ccccc1-c1nc(-c2ccccc2)n[nH]1,"inconclusive: 4.61 µM [activator, full curve]"
14,CC(=O)[C@@]1(O)CC[C@H]2[C@@H]3CCC4=CC(=O)CC[C@]4(C)[C@H]3CC[C@@]21C,inactive
15,N#Cc1c(Cl)nc2c(c1C#N)CCCC2,"inconclusive: 0.517 µM [falling, full curve]"
16,Cc1noc(C)c1COC(=O)c1ccccc1NC(=O)Cc1ccccc1,active: 14.6 µM
17,CCOC(=O)c1ccc(-n2c(O)c(/C=N/NC(=O)C3COc4ccccc4O3)c3ccccc3c2=O)cc1 (stereo not drawn),inactive
18,Cc1ccc(OCC(=O)NCC(=O)OCc2cc(=O)n3nc(CC(C)C)sc3n2)cc1,"inconclusive: 16.4 µM [activator, partial curve, poor fit]"
19,Cn1nc(C(F)(F)F)c2cc(C(=O)Nc3ccc(C(F)(F)F)cc3)sc21,active: 23.1 µM
20,COc1ccccc1-c1nnc(NC(=O)c2ccc(S(=O)(=O)N(C)Cc3ccccc3)cc2)o1,active: 5.8 µM
21,CC(Sc1nnnn1-c1ccc(Cl)cc1)C(=O)NCC(=O)Nc1ccc(F)c(F)c1F (stereo not drawn),inactive
22,CCOc1ccccc1C(=O)N1CCC(n2nnc3cc(C(F)(F)F)ccc32)CC1,"inconclusive: 29.1 µM [falling, single point]"
